{"source": "PubChem BioAssay AID2685", "about": "(National Center for Advancing Translational Sciences (NCATS), 2010)", "assay": "qHTS Assay for Lipid Storage Modulators in Drosophila S3 Cells;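 for cell number change: cells counted by Cell Tracker Red CMTPX staining in the red channel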", "settings": "BODIPY lipid droplet fluorescence, 18-24 h; for cell number change: measured here: cell count max response, cells fed with added oleic acid", "in_short": "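Laser-scanning cytometry quantifies lipid droplet accumulation (500–530 nm total intensity; droplet/cell object ratio) in oleic acid-fed (400 uM added) Drosophila S3 cells treated with a concentration series. 20 uM Triacsin C defined 100% inhibition.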", "key": {"[1]": {"settings": "measured here: cell number channel AC50, cells fed with added oleic acid"}, "[2]": {"settings": "measured here: lipid fluorescence (Fed channel) AC50, cells fed with added oleic acid"}}, "note": "The other results are listed elsewhere or left out. The main result of the screen is listed elsewhere. These columns were measured beside it and carry no call. The list favours compounds with an active or inconclusive main result. Potencies come from curve fits of mixed quality, noted in brackets.", "data": [{"compound": "C/C(=N\\NC(=O)c1cccc(F)c1)c1ccc(NC(=O)Cc2ccccc2)cc1", "values": [{"measurement": "cell number change", "value": 21.1, "unit": "%"}]}, {"compound": "CCOC(=O)c1sc(NC(=O)CN2CCN(c3ccc(OC)cc3)CC2)nc1C", "values": [{"measurement": "cell number change", "value": -26.4, "unit": "%"}, {"measurement": "AC50", "setting": "[1]", "value": "0.184 µM [falling, full curve, poor fit]"}, {"measurement": "AC50", "setting": "[2]", "value": "29.1 µM [falling, single point]"}]}, {"compound": "O=C(Cc1nnc(NC(=O)c2cccc([N+](=O)[O-])c2)s1)NCc1ccccc1", "values": [{"measurement": "cell number change", "value": 14.1, "unit": "%"}, {"measurement": "AC50", "setting": "[2]", "value": "29.1 µM [rising, single point]"}]}, {"compound": "Cc1ccc(N(CC(O)CN2CCOCC2)S(=O)(=O)c2ccc3ccccc3c2)cc1", "note": "(centres undefined)", "values": [{"measurement": "cell number change", "value": -18.1, "unit": "%"}, {"measurement": "AC50", "setting": "[1]", "value": "0.092 µM [falling, full curve, poor fit]"}]}, {"compound": "CC(=O)c1cc(CN2CCC(C(=O)Nc3cccc(-c4cscn4)c3)CC2)cs1", "values": [{"measurement": "cell number change", "value": 2.79, "unit": "%"}]}, {"compound": "O=C1CCCC(=O)N1c1ccc(N2CCOCC2)c([N+](=O)[O-])c1", "values": [{"measurement": "cell number change", "value": 8.35, "unit": "%"}, {"measurement": "AC50", "setting": "[1]", "value": "6.51 µM [falling, single point]"}, {"measurement": "AC50", "setting": "[2]", "value": "4.11 µM [falling, single point]"}]}, {"compound": "Cc1cc(C)c(CN2CCN(C(=O)Cn3ccc(NC(=O)OCc4ccccc4)nc3=O)CC2)c(C)c1", "values": [{"measurement": "cell number change", "value": -8.6, "unit": "%"}, {"measurement": "AC50", "setting": "[1]", "value": "1.16 µM [falling, single point]"}]}, {"compound": "Cc1cc(Br)c(NC(=O)CN(C)CCOc2ccccc2)c(Br)c1", "values": [{"measurement": "cell number change", "value": 5.14, "unit": "%"}, {"measurement": "AC50", "setting": "[2]", "value": "0.146 µM [falling, single point]"}]}, {"compound": "CCc1c(C)sc(NC(=O)C2CC2c2ccccc2)c1C(N)=O", "note": "(centres undefined)", "values": [{"measurement": "AC50", "setting": "[2]", "value": "2.06 µM [rising, partial curve]"}]}, {"compound": "Cc1ccccc1-c1cc(C(=O)O)n(CC2CC(c3cccnc3)=NO2)n1", "note": "(centres undefined)", "values": [{"measurement": "cell number change", "value": -6.44, "unit": "%"}, {"measurement": "AC50", "setting": "[2]", "value": "25.9 µM [rising, partial curve, poor fit]"}]}, {"compound": "COc1cccc(-c2nnc(SCC(=O)NCc3ccc4c(c3)OCO4)n2Cc2ccco2)c1", "values": [{"measurement": "cell number change", "value": 115, "unit": "%"}, {"measurement": "AC50", "setting": "[1]", "value": "14.6 µM [rising, partial curve]"}, {"measurement": "AC50", "setting": "[2]", "value": "2.91 µM [rising, partial curve]"}]}, {"compound": "O=S(=O)(Cc1ccccc1)N1CCc2ccccc21", "values": [{"measurement": "cell number change", "value": -11.2, "unit": "%"}, {"measurement": "AC50", "setting": "[2]", "value": "4.11 µM [falling, single point]"}]}, {"compound": "Nc1cc(C(=O)OCC(=O)N2CCC(Cc3ccccc3)CC2)ccc1Cl", "values": [{"measurement": "cell number change", "value": -3.11, "unit": "%"}]}, {"compound": "COc1cc2cc(C)c3nnc(SCC(N)=O)n3c2cc1OC", "values": [{"measurement": "cell number change", "value": -15, "unit": "%"}, {"measurement": "AC50", "setting": "[2]", "value": "9.2 µM [rising, partial curve]"}]}, {"compound": "C=CCn1cc(C(=O)NCCCN(CC)CC)c(=O)c2cc(S(=O)(=O)N3CCC(C)CC3)ccc21", "values": [{"measurement": "cell number change", "value": 13, "unit": "%"}, {"measurement": "AC50", "setting": "[2]", "value": "29.1 µM [rising, single point]"}]}, {"compound": "O=C(COC(=O)c1ccccc1NC(=O)c1ccco1)Nc1ccc2c(c1)OC(F)(F)O2", "values": [{"measurement": "cell number change", "value": -2.01, "unit": "%"}]}, {"compound": "COc1ccccc1N(C)S(=O)(=O)c1ccc(C(=O)OCC(=O)N(C(C)C)C(C)C)cc1", "values": [{"measurement": "cell number change", "value": 143, "unit": "%"}, {"measurement": "AC50", "setting": "[1]", "value": "16.4 µM [rising, partial curve]"}]}, {"compound": "O=C(c1ccc([N+](=O)[O-])cc1)N1CCOC12CCN(c1ncc(C(F)(F)F)cc1Cl)CC2", "values": [{"measurement": "cell number change", "value": -54.2, "unit": "%"}, {"measurement": "AC50", "setting": "[1]", "value": "2.91 µM [falling, partial curve]"}, {"measurement": "AC50", "setting": "[2]", "value": "0.651 µM [rising, single point]"}]}, {"compound": "O=C(NC1CCCC1)C1CCN(C(=O)c2cccc(Cl)c2)CC1", "values": [{"measurement": "cell number change", "value": 10.5, "unit": "%"}]}, {"compound": "O=C(NCC1CCCO1)C(c1ccc(F)cc1)N(CC1CCCO1)C(=O)c1ccc(-c2ccccc2)[nH]1", "note": "(centres undefined)", "values": [{"measurement": "cell number change", "value": -8.15, "unit": "%"}, {"measurement": "AC50", "setting": "[2]", "value": "32.6 µM [falling, single point]"}]}, {"compound": "COc1ccc2nc(SCC(N)=O)cc(C)c2c1", "values": [{"measurement": "cell number change", "value": 43.8, "unit": "%"}, {"measurement": "AC50", "setting": "[1]", "value": "25.9 µM [rising, single point]"}, {"measurement": "AC50", "setting": "[2]", "value": "0.731 µM [rising, partial curve, poor fit]"}]}, {"compound": "CC1CC(C)CN(C(=O)CSC2=Nc3ccccc3C3=NC(Cc4c[nH]c5ccccc45)C(=O)N23)C1", "note": "(centres undefined)", "values": [{"measurement": "AC50", "setting": "[1]", "value": "1.46 µM [rising, partial curve]"}, {"measurement": "AC50", "setting": "[2]", "value": "29.1 µM [falling, single point]"}]}, {"compound": "CCCC(=O)Nc1ccc(C(=O)N/N=C/c2ccc[nH]2)cc1", "values": [{"measurement": "cell number change", "value": 76.8, "unit": "%"}, {"measurement": "AC50", "setting": "[1]", "value": "4.11 µM [rising, full curve, poor fit]"}]}, {"compound": "CC(=O)NC(C)C(=O)OCC(=O)c1ccc(-c2ccccc2)cc1", "note": "(centres undefined)", "values": [{"measurement": "cell number change", "value": -29, "unit": "%"}, {"measurement": "AC50", "setting": "[2]", "value": "29.1 µM [falling, partial curve, poor fit]"}]}, {"compound": "Cc1cc(C(=O)Nc2cccc(C)c2C)c2ccccc2n1", "values": [{"measurement": "cell number change", "value": 31.4, "unit": "%"}]}, {"compound": "Cn1nc2c3cc(F)ccc3n(Cc3ccc(F)cc3)cc-2c1=O", "values": [{"measurement": "cell number change", "value": -13.5, "unit": "%"}, {"measurement": "AC50", "setting": "[1]", "value": "0.103 µM [falling, full curve]"}]}, {"compound": "COc1cccc2c(=O)cc(C)n(CC(=O)Nc3cccc(C)c3)c12", "values": [{"measurement": "cell number change", "value": -30.7, "unit": "%"}, {"measurement": "AC50", "setting": "[1]", "value": "5.17 µM [falling, partial curve]"}, {"measurement": "AC50", "setting": "[2]", "value": "4.11 µM [falling, partial curve]"}]}, {"compound": "C(=N\\n1cnnc1SCc1ccccc1)/c1ccco1", "values": [{"measurement": "cell number change", "value": -6.36, "unit": "%"}]}, {"compound": "C=CCN1C(=O)/C(=C/c2ccc(N(C)C)cc2)S/C1=N\\c1nnc(CC)s1", "values": [{"measurement": "cell number change", "value": 55.3, "unit": "%"}, {"measurement": "AC50", "setting": "[1]", "value": "0.461 µM [rising, full curve]"}]}, {"compound": "CC(C)(C)n1nnnc1C(c1ccc(C(F)(F)F)cc1)N(Cc1ccc(F)cc1)Cc1ccco1", "note": "(centres undefined)", "values": [{"measurement": "cell number change", "value": -31.5, "unit": "%"}, {"measurement": "AC50", "setting": "[1]", "value": "3.26 µM [falling, full curve]"}, {"measurement": "AC50", "setting": "[2]", "value": "2.91 µM [falling, full curve]"}]}, {"compound": "O=C(Nc1ccnc(-c2ccncc2)n1)c1ccc(Cl)cc1", "values": [{"measurement": "cell number change", "value": 23.5, "unit": "%"}, {"measurement": "AC50", "setting": "[2]", "value": "3.26 µM [rising, partial curve, poor fit]"}]}, {"compound": "O=C(COC(=O)c1ccccc1SCC(=O)N1CCCC1)Nc1ccc(OC(F)F)cc1", "values": [{"measurement": "cell number change", "value": -29.2, "unit": "%"}, {"measurement": "AC50", "setting": "[1]", "value": "0.0164 µM [falling, full curve, poor fit]"}, {"measurement": "AC50", "setting": "[2]", "value": "6.51 µM [rising, single point]"}]}, {"compound": "CC(CC(=O)NNC(=O)c1cccc(Cl)c1)c1ccccc1", "note": "(centres undefined)", "values": [{"measurement": "cell number change", "value": 4.7, "unit": "%"}]}, {"compound": "c1ccc(NC2=Nc3ccccc3CC2)cc1", "values": [{"measurement": "cell number change", "value": 16.2, "unit": "%"}]}, {"compound": "CCc1ccc(OC(C)C(=O)Nc2ccc(S(=O)(=O)Nc3cc(C)on3)cc2)cc1", "note": "(centres undefined)", "values": [{"measurement": "AC50", "setting": "[1]", "value": "1.64 µM [rising, partial curve, poor fit]"}, {"measurement": "AC50", "setting": "[2]", "value": "6.51 µM [rising, single point]"}]}, {"compound": "CC(OC(=O)c1n[nH]c2ccccc12)C(=O)Nc1ccccc1[N+](=O)[O-]", "note": "(centres undefined)", "values": [{"measurement": "cell number change", "value": 25.6, "unit": "%"}]}, {"compound": "CC(C)(C)c1ccc(C(=O)NN2CCOCC2)cc1", "values": [{"measurement": "cell number change", "value": 9.19, "unit": "%"}, {"measurement": "AC50", "setting": "[2]", "value": "6.51 µM [rising, single point]"}]}, {"compound": "COc1ccccc1Nc1nnc(SCC2CCCCO2)s1", "note": "(centres undefined)", "values": [{"measurement": "cell number change", "value": 20.3, "unit": "%"}, {"measurement": "AC50", "setting": "[1]", "value": "1.84 µM [rising, partial curve, poor fit]"}, {"measurement": "AC50", "setting": "[2]", "value": "0.231 µM [rising, full curve, poor fit]"}]}]}
